# Hit rate of the full screen: of about 140,000 compounds, about 4,300 (3.1%) were called active. The shares of active, inactive and inconclusive entries below differ from those in the screen.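 Rule for the calls: active = readout at or below -70, meaning at least 70% loss of cells showing the perinucleolar compartment, a nuclear body marking cancer cells; inconclusive = readout between -30 and a set limit; inactive = the rest.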
# Assay: High Content Assay for Compounds that inhibit the Assembly of the Perinucleolar Compartment
# Details: PC3M PTB-GFP, PNC prevalence imaging, 16 h; at 10 µM; stronger effect = lower value
# Excerpt: High Content Assay for Compounds that inhibit the Assembly of the Perinucleolar Compartment NIH Chemical Genomics Center [NCGC] NIH Molecular Libraries Probe Centers Network [MLPCN] MLPCN Grant: MH082371-01A2 Assay Submitter (PI): Sui Huang, Northwestern University, Feinberg School of Medicine, Cell and Molecular Biology, Chicago, Illinois. The perinucleolar compartment (PNC) is a non-membrane-bound nuclear subdomain that is associated with but structurally distinct from the nucleolus. The PNC is a heritable trait, in which the number of PNCs per cell in daughter cells often mimics that of their mother cells. The PNC is heterogeneous in shape, is stable through interphase, disassembles during mitosis, and reassembles in early G1. The PNC is concentrated with newly synthesized RNA polymerase III (pol III) RNAs (MRP RNA, RNAse P H1 RNA, hY RNAs[hY1, 2, 5], Alu RNA, and SRP [7SL] RNA) and RNA binding proteins (nucleolin, PTB, CUG-BP, KSRP, Raver1, Raver2, and Rod). […] Extensive in vitro studies have shown that the PNC is unique to tumor cells and preferentially forms in tumor cells derived from solid tissues. Examination of cancer cell lines from various origins and malignant capacities has shown that PNC prevalence correlates with the malignancy of tumors and has the potential to be developed as a pan-cancer prognostic marker. […] Although the PNC is associated with a DNA locus and a handful of components have been identified, much remains to be investigated regarding the structure and function of the PNC and its mechanistic link to cancer. We have previously shown that PNC prevalence reduction is a valid strategy to identify compounds that can be used to study the structure and function of the PNC. It is necessary, however, to create a screening platform that is able to test a large number of compounds in an automated fashion. Here we report the development and robustness of an automated whole-cell phenotypic image-based screening assay that is capable of identifying such compounds.
# PNC High Content Imaging Assay Procedure: 1. Cells at a density of 75-90% confluency in T175 flasks were harvested using 7 ml TrypLE Express cell dissociation reagent. After dissociation (5 minutes room temperature incubation) 10 ml of complete media was added to the TrypLE/cell suspension. The liquid was transferred to a 50 ml Conical tube and cells were pelleted at 1000 RPM for 5 min. Supernatant was removed and cells were resuspended to a final density of 150-200 cells/ul in complete media. 2. Cells were plated in 5 ul volume (750-1000 cells/well) into 1536 well Black uclear Aurora Low Base plates and allowed to recover and adhere at 37 C in a humidified 5% CO2 incubator for 4 hours. 3. After 4 hour incubation, compound libraries (23 nl of […] in columns 5-48) were transferred to the plates in duplicate using a 1536 well pintool. Camptothecin positive control (59 uM final) was added to column 2 and 1:3 dilutions of camptothecin was added to column 3. DMSO negative controls were present in columns 1 and 4. 4. After a 16 hour incubation in the 37 C incubator, cells were fixed by the addition of 4 ul of 6% EM grade paraformaldehyde (containing 0.1% triton X 100) directly to the cells. The plates were incubated at room temperature for 20 minutes. The liquid was removed using a 32 channel Kalypsys aspirator and the fixed cells were washed twice with 5 ul PBS followed by a final addition of 5 ul PBS containing 1 ug/ml Hoechst 33342. 5. Fixed plates were sealed and sotred at 4C until imaged. 6. Plates were imaged on an InCell 1000 automated microscope using a 20 x objective, a standard FITC filter set, no camera binning, and an exposure time of ~100-150 msec/well. 7. Data analysis. PNC prevalence was determined using the Multitarget analysis module from InCell Workstation software (V3.5 ) and analysis was run on a quad core workstation using the Incell Developer Toolbox (V1.7). […]
row,Compound,"activity change (PNC), negative = inhibition"
1,O=C(Oc1c(Cl)cc(Cl)c2ccccc12)N1CCCCC1,inconclusive: -33.7%
2,CC(C)CCNC(=O)c1c(N)n(Cc2ccc3c(c2)OCO3)c2nc3ccccc3nc12,inactive: -25.3%
3,O=C1CN=C(c2cccs2)c2c(sc3c2CCCC3)N1,inactive: -27.5%
4,CN[C@H]1C[C@H]2O[C@@](C)([C@H]1OC)n1c3ccccc3c3c4c(c5c6ccccc6n2c5c31)C(=O)NC4,active: -115%
5,CCCCCc1nc2ccccc2c(=O)n1-c1ccccc1[N+](=O)[O-],inconclusive: -37.7%
6,Cc1cccc(C)c1NC1=NCCCCS1,inconclusive: -42.1%
7,COC(=O)C1=Nc2ccccc2/C1=C\c1c(O)n(-c2ccc(Br)cc2)c(=O)[nH]c1=O,active: -124%
8,Cc1ccnc(-n2c(C)cc(C=C3C(=O)N(C)C(=S)N(C)C3=O)c2C)c1,inconclusive: -48.5%
9,NCC(O)c1ccc(O)cc1 (stereo not given),inconclusive: -65.2%
10,CCN(CC)CCNCc1nc2ccccc2c(=O)n1-c1ccc(F)cc1,inconclusive: -74.8%
11,CC(=O)Nc1ccc(OC(=O)N(C)c2ccccc2)cc1,inconclusive: -32.3%
12,C=C1C(O)(c2ccccc2)C2CC[N+]1(C)CC2 (stereo not given),inactive: -13.2%
13,COc1ccc(CC(=O)N2CCN(C)CC2)cc1,inconclusive: -31.2%
14,O=c1[nH]c(=O)n(C2CCCCCC2)c(O)c1C=NC1CCN(Cc2ccccc2)CC1,inconclusive: -41.3%
15,O=c1[nH]c(=O)n(C2CCCCCC2)c(O)c1C=NCC1CCCO1 (stereo not given),inconclusive: -34.9%
16,c1ccc2c(c1)Nc1ccccc1S2,inactive: -19%
17,CC(C)(C)C(O)C(Oc1ccc(Cl)cc1)n1cncn1 (stereo not given),inconclusive: -30.6%
18,CCC(=NC1CCN(Cc2ccccc2)CC1)c1c(O)[nH]c(=O)[nH]c1=O,inconclusive: -33.6%
19,COc1ccccc1CCNC1CCCC(C)C1 (stereo not given),inactive: 16.1%
20,CN(C)S(=O)(=O)c1cc(NC(=O)COC(=O)Cc2ccccc2)ccc1Cl,inconclusive: -39.3%

row,Compound,"activity change (PNC), negative = inhibition"
1,O=C(COc1ccc(S(=O)(=O)N2CCOCC2)cc1)N1CCN(Cc2ccc3c(c2)OCO3)CC1,inconclusive: -46.3%
2,CCCC/C(=N\O)c1c[nH]c2ccccc12,active: -80.9%
3,O=C(c1ccco1)c1cn(Cc2ccc(Cl)cc2)c2ccccc12,inactive: -29.6%
4,Cc1nc2cc(C(=O)N3CCC4(CC3)OCCO4)ccc2n1-c1ccc(Br)cc1,inactive: 33.9%
5,CCCCCCn1c(O)c(C=NCCN2CCCCC2)c(=O)[nH]c1=O,inconclusive: -36.8%
6,CCN(c1ccc(C(O)(C(=O)OC)C(F)(F)F)cc1)S(=O)(=O)c1ccccc1 (stereo not given),inconclusive: -64.7%
7,OC1(c2ccc(F)cc2)CC2CCC(C1)N2Cc1nnnn1C1CCCC1 (stereo not given),inactive: -6.56%
8,Cc1cccc(NC(=O)CSc2nnc([C@@H](N)Cc3c[nH]c4ccccc34)o2)c1C,inconclusive: -35.6%
9,CCCCCc1nc2c(c(=O)c3ccccc3n2C)c(=O)n1C1CCCCCC1,inconclusive: -52.7%
10,Nc1cc(Cl)c2nonc2c1[N+](=O)[O-],inconclusive: -39.3%
11,O=C(CN1CCCC1=O)N1CCOCC1,inconclusive: -36.8%
12,Nc1ccccc1N=Cc1c(O)n(CCC2=CCCCC2)c(=O)[nH]c1=O,inconclusive: -65.1%
13,CCCC1=C(C(=O)OCC)C2(C(=O)Nc3ccccc32)C(C#N)=C(N)O1 (stereo not given),inactive: 0.252%
14,Cc1ccc(CN2CCN(C)CC2)c(C)c1,inconclusive: -34.6%
15,O=C(c1cnn2c(C(F)(F)F)cc(-c3ccccc3)nc12)N1CCC2(CC1)OCCO2,inactive: -6.19%
16,CC(C)n1cc(C(=O)N(CC(=O)NC2CCCC2)Cc2ccccc2)cn1,inconclusive: -40.8%
17,S=C1NCCN1,active: -84.5%
18,CCCC[N+]12CCC(CC1)C(C(=O)c1cccs1)C2 (stereo not given),inconclusive: -35.4%
19,O=C(Nc1nc(-c2ccccc2)c(-c2ccccc2)s1)c1ccc(S(=O)(=O)N(CCCl)CCCl)cc1,inconclusive: -38.2%
20,Cc1ccc(C(=O)NC(O)C(Cl)(Cl)Cl)cc1 (stereo not given),inconclusive: -34.9%

# Arranged by molar mass (falling): 5 of the compounds above.
row,Compound,"activity change (PNC), negative = inhibition"
4,Cc1nc2cc(C(=O)N3CCC4(CC3)OCCO4)ccc2n1-c1ccc(Br)cc1,inactive: 33.9%
7,OC1(c2ccc(F)cc2)CC2CCC(C1)N2Cc1nnnn1C1CCCC1 (stereo not given),inactive: -6.56%
16,CC(C)n1cc(C(=O)N(CC(=O)NC2CCCC2)Cc2ccccc2)cn1,inconclusive: -40.8%
13,CCCC1=C(C(=O)OCC)C2(C(=O)Nc3ccccc32)C(C#N)=C(N)O1 (stereo not given),inactive: 0.252%
18,CCCC[N+]12CCC(CC1)C(C(=O)c1cccs1)C2 (stereo not given),inconclusive: -35.4%

# Continuation:

row,Compound,"activity change (PNC), negative = inhibition"
1,COc1ccc(C(O)c2ccccc2OP(=O)(N(C)C)N(C)C)cc1 (stereo not given),inactive: -28.6%
2,CCCCCSc1cc(OC)c(CCN)cc1OC,inconclusive: -39.9%
3,CCOC(=O)c1c(C)n(Cc2ccc3c(c2)OCO3)c2ccc(O)cc12,inconclusive: -49.4%
4,Nc1c(C(=O)NCc2ccco2)c2nc3ccccc3nc2n1CCN1CCCCC1,inconclusive: -79.6%
5,O/N=C/c1c[nH]c2ccccc12,inconclusive: -39.2%
6,Cc1ccccc1CN1CCN(c2ccc(Cl)cc2)CC1,inactive: -15%
7,c1ccc(Cn2ccnc2)cc1,inconclusive: -33.5%
8,Cc1cc(C)cc(N2C(=O)NC(=O)/C(=C/c3cccn3-c3ccc(Cl)cc3)C2=O)c1,inactive: 9.93%
9,Cc1cc(S(=O)(=O)NCc2ccccc2)ccc1OCC(=O)N1CCN(C)CC1,inconclusive: -66.3%
10,O=c1[nH]c(=O)n(CCc2ccc(F)cc2)c(O)c1C=NCCCn1ccnc1,inconclusive: -40.3%
11,O=C1NC(=O)C(=CN2CCc3ccccc32)C(=O)N1,inactive: 104%
12,CCOc1cc(C2NCc3ccccc3-n3cccc32)ccc1O (stereo not given),inconclusive: -63.4%
13,O=C1NC(=O)N(c2ccc3c(c2)OCO3)C(=O)/C1=C\c1ccc(N2CCCCC2)o1,inconclusive: -52.7%
14,Cc1ccc(C(c2nnnn2Cc2ccccc2)N2CC=C(c3ccc(F)cc3)CC2)cc1 (stereo not given),inactive: 49.3%
15,CC12CN3CCN(C1)CC(C)(C3)C2=NO,inconclusive: -67.4%
16,CCn1c(O)c(/C(C)=N/N2CCCCC2c2cccnc2)c(=O)[nH]c1=S (stereo not given),inactive: -13.3%
17,CN1C(=O)C(Cc2ccsc2)C(=O)N(C)C1=O,inactive: 0.85%
18,O=S(=O)(c1ccc(Cl)cc1)N1CC1c1ccccc1 (stereo not given),inconclusive: -35.4%
19,Cc1cc(C=O)c(C)n1CC1CCCO1 (stereo not given),inconclusive: -62.4%
20,CCOC(=O)c1cc(C)n(CCc2cnc[nH]2)c1C,inconclusive: -40.4%

# Source: PubChem BioAssay AID2417 (National Center for Advancing Translational Sciences (NCATS), 2010)
